According to paper PMC10611586:

Molecular target: HA–Fubi^C57A-VS (human) (UniProt P62861)
Test: affinity purification with mass spectrometry; HeLa lysate (1 mg protein) incubated with 5 µg HA-tagged VS probe for 1 h at 37 °C, compared with lysate pretreated with 10 mM IAA; covalent conjugates enriched on anti-HA affinity gel; label-free quantification; only the target purified

binding | Binder
binds | endogenous USP36 (enzyme, UniProt Q9P275 1-1123) MPIVDKLKEALKPGRKDSADDGELGKLLASSAKKVLLQKIEFEPASKSFSYQLEALKSKYVLLNPKTEGASRHKSGDDPPARRQGSEHTYESCGDGVPAPQKVLFPTERLSLRWERVFRVGAGLHNLGNTCFLNATIQCLTYTPPLANYLLSKEHARSCHQGSFCMLCVMQNHIVQAFANSGNAIKPVSFIRDLKKIARHFRFGNQEDAHEFLRYTIDAMQKACLNGCAKLDRQTQATTLVHQIFGGYLRSRVKCSVCKSVSDTYDPYLDVALEIRQAANIVRALELFVKADVLSGENAYMCAKCKKKVPASKRFTIHRTSNVLTLSLKRFANFSGGKITKDVGYPEFLNIRPYMSQNNGDPVMYGLYAVLVHSGYSCHAGHYYCYVKASNGQWYQMNDSLVHSSNVKVVLNQQAYVLFYLRIPGSKKSPEGLISRTGSSSLPGRPSVIPDHSKKNIGNGIISSPLTGKRQDSGTMKKPHTTEEIGVPISRNGSTLGLKSQNGCIPPKLPSGSPSPKLSQTPTHMPTILDDPGKKVKKPAPPQHFSPRTAQGLPGTSNSNSSRSGSQRQGSWDSRDVVLSTSPKLLATATANGHGLKGNDESAGLDRRGSSSSSPEHSASSDSTKAPQTPRSGAAHLCDSQETNCSTAGHSKTPPSGADSKTVKLKSPVLSNTTTEPASTMSPPPAKKLALSAKKASTLWRATGNDLRPPPPSPSSDLTHPMKTSHPVVASTWPVHRARAVSPAPQSSSRLQPPFSPHPTLLSSTPKPPGTSEPRSCSSISTALPQVNEDLVSLPHQLPEASEPPQSPSEKRKKTFVGEPQRLGSETRLPQHIREATAAPHGKRKRKKKKRPEDTAASALQEGQTQRQPGSPMYRREGQAQLPAVRRQEDGTQPQVNGQQVGCVTDGHHASSRKRRRKGAEGLGEEGGLHQDPLRHSCSPMGDGDPEAMEESPRKKKKKKRKQETQRAVEEDGHLKCPRSAKPQDAVVPESSSCAPSANGWCPGDRMGLSQAPPVSWNGERESDVVQELLKYSSDKAYGRKVLTWDGKMSAVSQDAIEDSRQARTETVVDDWDEEFDRGKEKKIKKFKREKRRNFNAFQKLQTRRNFWSVTHPAKAASLSYRR
no binding | endogenous USP48 (enzyme, UniProt Q86UV5 1-1035) MAPRLQLEKAAWRWAETVRPEEVSQEHIETAYRIWLEPCIRGVCRRNCKGNPNCLVGIGEHIWLGEIDENSFHNIDDPNCERRKKNSFVGLTNLGATCYVNTFLQVWFLNLELRQALYLCPSTCSDYMLGDGIQEEKDYEPQTICEHLQYLFALLQNSNRRYIDPSGFVKALGLDTGQQQDAQEFSKLFMSLLEDTLSKQKNPDVRNIVQQQFCGEYAYVTVCNQCGRESKLLSKFYELELNIQGHKQLTDCISEFLKEEKLEGDNRYFCENCQSKQNATRKIRLLSLPCTLNLQLMRFVFDRQTGHKKKLNTYIGFSEILDMEPYVEHKGGSYVYELSAVLIHRGVSAYSGHYIAHVKDPQSGEWYKFNDEDIEKMEGKKLQLGIEEDLAEPSKSQTRKPKCGKGTHCSRNAYMLVYRLQTQEKPNTTVQVPAFLQELVDRDNSKFEEWCIEMAEMRKQSVDKGKAKHEEVKELYQRLPAGAEPYEFVSLEWLQKWLDESTPTKPIDNHACLCSHDKLHPDKISIMKRISEYAADIFYSRYGGGPRLTVKALCKECVVERCRILRLKNQLNEDYKTVNNLLKAAVKGSDGFWVGKSSLRSWRQLALEQLDEQDGDAEQSNGKMNGSTLNKDESKEERKEEEELNFNEDILCPHGELCISENERRLVSKEAWSKLQQYFPKAPEFPSYKECCSQCKILEREGEENEALHKMIANEQKTSLPNLFQDKNRPCLSNWPEDTDVLYIVSQFFVEEWRKFVRKPTRCSPVSSVGNSALLCPHGGLMFTFASMTKEDSKLIALIWPSEWQMIQKLFVVDHVIKITRIEVGDVNPSETQYISEPKLCPECREGLLCQQQRDLREYTQATIYVHKVVDNKKVMKDSAPELNVSSSETEEDKEEAKPDGEKDPDFNQSNGGTKRQKISHQNYIAYQKQVIRRSMRHRKVRGEKALLVSANQTLKELKIQIMHAFSVAPFDQNLSIDGKILSDDCATLGTLGVIPESVILLKADEPIADYAAMDDVMQVCMPEEGFKGTGLLGH

No constants are given. Whether binding was seen depends on the method and setting. In cells and extracts the contact can be indirect. A yes stands for co-enrichment or nearness to the bait. Other partners may have been found. No binding means not detected with the bait.
